These are yes or no findings as the source states them, for the method shown. Some entries that bind do so weakly or less than the wild type.
Molecular target: IL-15RaSushi (Miltenyi) (UniProt Q13261)
Assay: ELISA of FIG. 3B, IL-15RaSushi coated 100 ng/well by the legend (the sentence prints IL-15), anti-human kappa HRP detection

The chains behind the UniProt entries cited, without tags or fusion partners. Residues count along the entry.
UniProt Q13261, residues 31-95: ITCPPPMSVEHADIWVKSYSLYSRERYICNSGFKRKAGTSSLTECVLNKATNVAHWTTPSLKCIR

- binding: binds
B1: BSIC-13 Syn(null) (antibody, human IgG1, kappa, V domains shown)
VH: QVTLRESGPALVKPTQTLTLTCTFSGFSLSTSGMSVGWIRQPPGKALEWLADIWWDDKKDYNPSLKSRLTISKDTSKNQVVLKVTNMDPADTATYYCARSMITNWYFDVWGAGTTVTVSS
VL: DIQMTQSPSTLSASVGDRVTITCKCQLSVGYMHWYQQKPGKAPKLLIYDTSKLASGVPSRFSGSGSGTEFTLTISSLQPDDFATYYCFQGSGYPFTFGGGTKLEIKR
